No constants are given. Whether binding was seen depends on the method and setting. A result given as binding can be weak or reduced; the word gives no strength.
Target: T1, Recombinant human NRP‐1 (human) (UniProt O14786)
T1 sequence: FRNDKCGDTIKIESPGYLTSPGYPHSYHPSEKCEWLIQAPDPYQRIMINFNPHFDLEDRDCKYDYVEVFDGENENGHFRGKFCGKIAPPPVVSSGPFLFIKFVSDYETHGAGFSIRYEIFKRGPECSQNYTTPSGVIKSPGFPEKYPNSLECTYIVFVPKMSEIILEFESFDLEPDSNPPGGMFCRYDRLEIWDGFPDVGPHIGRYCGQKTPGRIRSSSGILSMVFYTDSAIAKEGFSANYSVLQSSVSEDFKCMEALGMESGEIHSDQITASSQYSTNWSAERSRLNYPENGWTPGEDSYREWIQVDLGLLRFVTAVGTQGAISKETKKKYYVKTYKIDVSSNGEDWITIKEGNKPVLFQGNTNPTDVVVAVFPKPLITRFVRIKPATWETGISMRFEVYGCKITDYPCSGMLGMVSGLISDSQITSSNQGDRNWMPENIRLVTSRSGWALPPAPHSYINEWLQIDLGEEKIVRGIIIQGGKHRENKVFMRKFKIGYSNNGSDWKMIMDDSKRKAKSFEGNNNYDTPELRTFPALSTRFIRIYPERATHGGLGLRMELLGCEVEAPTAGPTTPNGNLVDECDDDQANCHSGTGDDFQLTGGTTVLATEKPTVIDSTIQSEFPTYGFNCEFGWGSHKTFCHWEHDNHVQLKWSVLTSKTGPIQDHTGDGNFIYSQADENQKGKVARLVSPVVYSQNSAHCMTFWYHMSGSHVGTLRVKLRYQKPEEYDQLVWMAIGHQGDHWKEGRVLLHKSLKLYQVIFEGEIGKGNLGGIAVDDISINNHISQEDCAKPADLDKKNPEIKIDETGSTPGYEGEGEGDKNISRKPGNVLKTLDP
Assay: SPR; competition: NRP-1 immobilised by amine coupling; protein analyte at a fixed concentration (VEGFR-1/Fc 5 nM; α5β1 integrin 200 nM; semaphorin 3A 200 nM) injected together with peptide at different concentrations; HEPES-buffered saline; both purified

binding: binds
Substance: Purified α5β1 integrin (complex)
